{"source": "PubChem BioAssay AID504784 – Drosophila RNAi Screening Center | 2011", "test": "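Search for regulators of lipid droplet storage in oleate-fed fly cells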 (primary screen)", "cell system": "Drosophila Kc167 embryonic cells", "reagents": "long dsRNA against Drosophila genes, about 250 ng dsRNA per well", "timing": "4 days", "challenge": "cells fed 400 µM oleic acid bound to BSA", "measurement": "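Cells imaged and segmented; ratio of lipid droplet area to nuclear area, log-transformed, then normalised as a B-score over the screen; higher means more stored lipid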", "scale": "droplet/nuclear area B-score: higher = more stored lipid (overstorage)", "note": "In all, the deposit lists about 17,000 reagents; this is an unselected part of those that have a named target and a result. 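Each column is one replicate's B-score; the combined score over replicates was not deposited, so single values may mislead.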 A plus sign joins genes that one reagent is predicted to hit."}
{"gene knocked down": "t (tan)", "DRSC id": "DRSC17815", "droplet/nuclear area B-score, replicate 1": -0.22, "droplet/nuclear area B-score, replicate 2": 0.0803, "droplet/nuclear area B-score, replicate 3": 0.0393}
{"gene knocked down": "Kdm4B (Lysine demethylase 4B)", "DRSC id": "DRSC06862", "droplet/nuclear area B-score, replicate 1": -0.0258, "droplet/nuclear area B-score, replicate 2": 1.38}
{"gene knocked down": "CG9445", "DRSC id": "DRSC05006", "droplet/nuclear area B-score, replicate 1": -0.706, "droplet/nuclear area B-score, replicate 2": -0.829}
{"gene knocked down": "CG13989", "DRSC id": "DRSC02321", "droplet/nuclear area B-score, replicate 1": -0.017, "droplet/nuclear area B-score, replicate 2": -2.09}
{"gene knocked down": "CG9663", "DRSC id": "DRSC00724", "droplet/nuclear area B-score, replicate 1": 0.275, "droplet/nuclear area B-score, replicate 2": 0.0263}
{"gene knocked down": "CG17249", "DRSC id": "DRSC08517", "droplet/nuclear area B-score, replicate 1": 0.32, "droplet/nuclear area B-score, replicate 2": 0.441}
{"gene knocked down": "CG14082", "DRSC id": "DRSC10086", "droplet/nuclear area B-score, replicate 1": -1.61, "droplet/nuclear area B-score, replicate 2": -0.755}
{"gene knocked down": "CG8100", "DRSC id": "DRSC10961", "droplet/nuclear area B-score, replicate 1": 1.04, "droplet/nuclear area B-score, replicate 2": -0.406}
{"gene knocked down": "CG13299", "DRSC id": "DRSC09973", "droplet/nuclear area B-score, replicate 1": 0.478, "droplet/nuclear area B-score, replicate 2": -1.14}
{"gene knocked down": "Inx7 (Innexin 7)", "DRSC id": "DRSC18784", "droplet/nuclear area B-score, replicate 1": -0.879, "droplet/nuclear area B-score, replicate 2": 0.747}
{"gene knocked down": "CG3257", "DRSC id": "DRSC04351", "droplet/nuclear area B-score, replicate 1": -1.04, "droplet/nuclear area B-score, replicate 2": -0.726}
{"gene knocked down": "CG32767", "DRSC id": "DRSC18386", "droplet/nuclear area B-score, replicate 1": 2.34, "droplet/nuclear area B-score, replicate 2": 0.301}
{"gene knocked down": "Mov10 (Mov10 RISC complex RNA helicase)", "DRSC id": "DRSC07012", "droplet/nuclear area B-score, replicate 1": -0.164, "droplet/nuclear area B-score, replicate 2": -0.653}
{"gene knocked down": "CG7203", "DRSC id": "DRSC03026", "droplet/nuclear area B-score, replicate 1": 0.401, "droplet/nuclear area B-score, replicate 2": -0.954}
{"gene knocked down": "MCTS1 (Malignant T cell amplified sequence 1)", "DRSC id": "DRSC18393", "droplet/nuclear area B-score, replicate 1": 1.94, "droplet/nuclear area B-score, replicate 2": -1.26, "droplet/nuclear area B-score, replicate 3": -0.254}
{"gene knocked down": "Cp16 (Chorion protein 16)", "DRSC id": "DRSC11119", "droplet/nuclear area B-score, replicate 1": -0.00422, "droplet/nuclear area B-score, replicate 2": -0.386}
{"gene knocked down": "Hsp70Aa + Hsp70Bb + Hsp70Ba + 3 more", "DRSC id": "DRSC15380", "droplet/nuclear area B-score, replicate 1": 2.96, "droplet/nuclear area B-score, replicate 2": 5.89}
{"gene knocked down": "Zfrp8 (Zinc finger protein RP-8)", "DRSC id": "DRSC04352", "droplet/nuclear area B-score, replicate 1": -2, "droplet/nuclear area B-score, replicate 2": -1.05}
{"gene knocked down": "Idh3g", "DRSC id": "DRSC15699", "droplet/nuclear area B-score, replicate 1": -0.704, "droplet/nuclear area B-score, replicate 2": 0.28}
{"gene knocked down": "CG11737", "DRSC id": "DRSC14364", "droplet/nuclear area B-score, replicate 1": 0.672, "droplet/nuclear area B-score, replicate 2": -0.139}
{"gene knocked down": "CG12128", "DRSC id": "DRSC06104", "droplet/nuclear area B-score, replicate 1": 1.37, "droplet/nuclear area B-score, replicate 2": -0.155}
{"gene knocked down": "Sirt4 (Sirtuin 4)", "DRSC id": "DRSC18290", "droplet/nuclear area B-score, replicate 1": 1.79, "droplet/nuclear area B-score, replicate 2": 0.0365}
{"gene knocked down": "Acp65Aa (Adult cuticle protein 65Aa)", "DRSC id": "DRSC09663", "droplet/nuclear area B-score, replicate 1": -0.113, "droplet/nuclear area B-score, replicate 2": -0.08}
{"gene knocked down": "CG34242", "DRSC id": "DRSC09185", "droplet/nuclear area B-score, replicate 1": 1.05, "droplet/nuclear area B-score, replicate 2": -0.549}
{"gene knocked down": "d4", "DRSC id": "DRSC04881", "droplet/nuclear area B-score, replicate 2": 2.29}
{"gene knocked down": "d4", "DRSC id": "DRSC22674", "droplet/nuclear area B-score, replicate 1": -0.554, "droplet/nuclear area B-score, replicate 2": -1.34}
{"gene knocked down": "rdhB (retinol dehydrogenase B)", "DRSC id": "DRSC16190", "droplet/nuclear area B-score, replicate 1": -0.00548, "droplet/nuclear area B-score, replicate 2": 2.17}
{"gene knocked down": "amx (almondex)", "DRSC id": "DRSC18736", "droplet/nuclear area B-score, replicate 1": 0.699, "droplet/nuclear area B-score, replicate 2": 0.887, "droplet/nuclear area B-score, replicate 3": 1.97}
{"gene knocked down": "mTor (mechanistic Target of rapamycin)", "DRSC id": "DRSC02811", "droplet/nuclear area B-score, replicate 1": -0.519, "droplet/nuclear area B-score, replicate 2": -0.933}
{"gene knocked down": "CG2962", "DRSC id": "DRSC18247", "droplet/nuclear area B-score, replicate 1": -0.0484, "droplet/nuclear area B-score, replicate 2": -0.582, "droplet/nuclear area B-score, replicate 3": -3.11}
{"gene knocked down": "Gbp3 (Growth-blocking peptide 3)", "DRSC id": "DRSC15206", "droplet/nuclear area B-score, replicate 1": -0.853, "droplet/nuclear area B-score, replicate 2": 0.002}
{"gene knocked down": "CG4991", "DRSC id": "DRSC19928", "droplet/nuclear area B-score, replicate 1": -1.13, "droplet/nuclear area B-score, replicate 2": -0.0552}
{"gene knocked down": "CG13083", "DRSC id": "DRSC02187", "droplet/nuclear area B-score, replicate 1": 1.28, "droplet/nuclear area B-score, replicate 2": 0.601}
{"gene knocked down": "AANATL4 (Arylalkylamine N-acetyltransferase-like 4)", "DRSC id": "DRSC06774", "droplet/nuclear area B-score, replicate 1": 1.71, "droplet/nuclear area B-score, replicate 2": -0.103}
{"gene knocked down": "PMCA (plasma membrane calcium ATPase)", "DRSC id": "DRSC17114", "droplet/nuclear area B-score, replicate 1": -1.18, "droplet/nuclear area B-score, replicate 2": -1.4}
{"gene knocked down": "PMCA (plasma membrane calcium ATPase)", "DRSC id": "DRSC17154", "droplet/nuclear area B-score, replicate 1": 0.0658}
{"gene knocked down": "Teh4 (tipE homolog 4)", "DRSC id": "DRSC08457", "droplet/nuclear area B-score, replicate 1": 0.368, "droplet/nuclear area B-score, replicate 2": 0.755}
{"gene knocked down": "Msp300 (Muscle-specific protein 300 kDa)", "DRSC id": "DRSC00856", "droplet/nuclear area B-score, replicate 1": -0.0944, "droplet/nuclear area B-score, replicate 2": 2.47}
{"gene knocked down": "Msp300 (Muscle-specific protein 300 kDa)", "DRSC id": "DRSC00857", "droplet/nuclear area B-score, replicate 1": 0.98, "droplet/nuclear area B-score, replicate 2": 0.67}
{"gene knocked down": "Msp300 (Muscle-specific protein 300 kDa)", "DRSC id": "DRSC00858", "droplet/nuclear area B-score, replicate 1": 0.0944, "droplet/nuclear area B-score, replicate 2": -0.00535}
{"gene knocked down": "Msp300 (Muscle-specific protein 300 kDa)", "DRSC id": "DRSC02360", "droplet/nuclear area B-score, replicate 1": 0.0573, "droplet/nuclear area B-score, replicate 2": -0.014}
{"gene knocked down": "Msp300 (Muscle-specific protein 300 kDa)", "DRSC id": "DRSC03369", "droplet/nuclear area B-score, replicate 1": -0.309, "droplet/nuclear area B-score, replicate 2": 0.204}
{"gene knocked down": "Msp300 (Muscle-specific protein 300 kDa)", "DRSC id": "DRSC03370", "droplet/nuclear area B-score, replicate 1": 1, "droplet/nuclear area B-score, replicate 2": 2.71}
